PubChem BioAssay AID1259254, NCATS – 2017
Here is an unselected part of about 59,000 reagents. Of all reagents, about 1,550 (2.6%) were called active. 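G2 share is only a proxy for re-replication; each gene was hit by three separate siRNAs, and active genes were retested.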 Unmarked entries are inactive. Reagents against one gene are numbered here. Further read-outs or replicates are left out here. The record does not give: the amount of reagent.

- Assay: 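Finding genes that stop cells copying their DNA twice in one cycle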 (primary screen)
- System: human HCT116 colorectal cancer cells
- Knock-down reagent: single siRNA against human genes
- Duration: 3 days
- Measured: 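Imaged Hoechst DNA stain sorts each cell into a cycle phase by DNA amount; per plate, G2 fraction set to 0% for non-targeting and 100% for GMNN siRNA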
- Direction: G2 robust z-score and G2 cells, % of GMNN control: higher = more G2 cells, more excess DNA replication
- Rule for the call: 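An siRNA counts as active if its G2 robust z-score lies at least 5 MADs above the screen median; here such calls match roughly 38% of GMNN control or more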

| gene knocked down | siRNA no. | G2 robust z-score | G2 cells, % of GMNN control |
| --- | --- | --- | --- |
| XTBD1 (XRN2 binding domain containing 1) | 1 | -0.451 | -0.203 |
| XTBD1 (XRN2 binding domain containing 1) | 2 | 0.488 | 6.4 |
| XTBD1 (XRN2 binding domain containing 1) | 3 | 0.0664 | 3.43 |
| ZC3H11D (zinc finger CCCH-type containing 11D) | 1 | -0.186 | 1.66 |
| ZC3H11D (zinc finger CCCH-type containing 11D) | 2 | -0.279 | 1 |
| ZC3H11D (zinc finger CCCH-type containing 11D) | 3 | -0.215 | 1.45 |
| ZNF431 (zinc finger protein 431) | 1 | -0.493 | -0.5 |
| ZNF431 (zinc finger protein 431) | 2 | 1.42 | 13 |
| ZNF431 (zinc finger protein 431) | 3 | -1.02 | -4.21 |
| DCST1 (DC-STAMP domain containing 1) | 1 | -0.952 | -3.73 |
| DCST1 (DC-STAMP domain containing 1) | 2 | -0.414 | 0.0547 |
| DCST1 (DC-STAMP domain containing 1) | 3 | 0.204 | 4.41 |
| C12orf56 (chromosome 12 open reading frame 56) | 1 | -0.75 | -2.31 |
| C12orf56 (chromosome 12 open reading frame 56) | 2 | 1.62 | 14.3 |
| C12orf56 (chromosome 12 open reading frame 56) | 3 | -0.709 | -2.02 |
| IFNK (interferon kappa) | 1 | -0.724 | -2.13 |
| IFNK (interferon kappa) | 2 | -0.617 | -1.37 |
| IFNK (interferon kappa) | 3 | 1.8 | 15.6 |
| MAFB (MAF bZIP transcription factor B) | 1 | -0.224 | 1.39 |
| MAFB (MAF bZIP transcription factor B) | 2 | -0.0707 | 2.47 |
| MAFB (MAF bZIP transcription factor B) | 3 | -0.64 | -1.53 |
| COQ5 (coenzyme Q5, methyltransferase) | 1 | 7.54 (active) | 56 |
| COQ5 (coenzyme Q5, methyltransferase) | 2 | -1.01 | -4.11 |
| COQ5 (coenzyme Q5, methyltransferase) | 3 | -0.633 | -1.49 |
| FEN1 (flap structure-specific endonuclease 1) | 1 | 6.07 (active) | 45.7 |
| FEN1 (flap structure-specific endonuclease 1) | 2 | -0.725 | -2.13 |
| FEN1 (flap structure-specific endonuclease 1) | 3 | -0.39 | 0.224 |
| DPP4 (dipeptidyl peptidase 4) | 1 | -0.164 | 1.81 |
| DPP4 (dipeptidyl peptidase 4) | 2 | 0.986 | 9.91 |
| DPP4 (dipeptidyl peptidase 4) | 3 | -0.737 | -2.22 |
| RASGRF2 (Ras protein specific guanine nucleotide releasing factor 2) | 1 | 2.84 | 23 |
| RASGRF2 (Ras protein specific guanine nucleotide releasing factor 2) | 2 | -0.0199 | 2.83 |
| RASGRF2 (Ras protein specific guanine nucleotide releasing factor 2) | 3 | 1.19 | 11.3 |
| DPY30 (dpy-30 histone methyltransferase complex regulatory subunit) | 1 | -0.894 | -3.32 |
| DPY30 (dpy-30 histone methyltransferase complex regulatory subunit) | 2 | -0.54 | -0.831 |
| DPY30 (dpy-30 histone methyltransferase complex regulatory subunit) | 3 | -0.602 | -1.27 |
| ATP12A (ATPase H+/K+ transporting non-gastric alpha2 subunit) | 1 | -0.341 | 0.57 |
| ATP12A (ATPase H+/K+ transporting non-gastric alpha2 subunit) | 2 | 0.132 | 3.9 |
| ATP12A (ATPase H+/K+ transporting non-gastric alpha2 subunit) | 3 | -0.781 | -2.52 |
| ZBTB48 (zinc finger and BTB domain containing 48) | 1 | -0.405 | 0.121 |
| ZBTB48 (zinc finger and BTB domain containing 48) | 2 | -0.734 | -2.2 |
| ZBTB48 (zinc finger and BTB domain containing 48) | 3 | -0.771 | -2.46 |
| RPL15 (ribosomal protein L15) | 1 | 0.153 | 4.04 |
| RPL15 (ribosomal protein L15) | 2 | 5.14 (active) | 39.1 |
| RPL15 (ribosomal protein L15) | 3 | 0.223 | 4.54 |
| APOA5 (apolipoprotein A5) | 1 | -0.0798 | 2.41 |
| APOA5 (apolipoprotein A5) | 2 | 2.84 | 23 |
| APOA5 (apolipoprotein A5) | 3 | -0.631 | -1.47 |

Reagents listed above called active, once more:
| gene knocked down | siRNA no. | G2 robust z-score | G2 cells, % of GMNN control |
| --- | --- | --- | --- |
| COQ5 (coenzyme Q5, methyltransferase) | 1 | 7.54 (active) | 56 |
| FEN1 (flap structure-specific endonuclease 1) | 1 | 6.07 (active) | 45.7 |
| RPL15 (ribosomal protein L15) | 2 | 5.14 (active) | 39.1 |
